The text below walks through data of the supplement of paper PMC6411743.

Chains of the proteins cited; added tags and fusions are not shown. Lines headed by an entry give the natural chain unless they say otherwise; changes in a name come on top.
UniProt P42892: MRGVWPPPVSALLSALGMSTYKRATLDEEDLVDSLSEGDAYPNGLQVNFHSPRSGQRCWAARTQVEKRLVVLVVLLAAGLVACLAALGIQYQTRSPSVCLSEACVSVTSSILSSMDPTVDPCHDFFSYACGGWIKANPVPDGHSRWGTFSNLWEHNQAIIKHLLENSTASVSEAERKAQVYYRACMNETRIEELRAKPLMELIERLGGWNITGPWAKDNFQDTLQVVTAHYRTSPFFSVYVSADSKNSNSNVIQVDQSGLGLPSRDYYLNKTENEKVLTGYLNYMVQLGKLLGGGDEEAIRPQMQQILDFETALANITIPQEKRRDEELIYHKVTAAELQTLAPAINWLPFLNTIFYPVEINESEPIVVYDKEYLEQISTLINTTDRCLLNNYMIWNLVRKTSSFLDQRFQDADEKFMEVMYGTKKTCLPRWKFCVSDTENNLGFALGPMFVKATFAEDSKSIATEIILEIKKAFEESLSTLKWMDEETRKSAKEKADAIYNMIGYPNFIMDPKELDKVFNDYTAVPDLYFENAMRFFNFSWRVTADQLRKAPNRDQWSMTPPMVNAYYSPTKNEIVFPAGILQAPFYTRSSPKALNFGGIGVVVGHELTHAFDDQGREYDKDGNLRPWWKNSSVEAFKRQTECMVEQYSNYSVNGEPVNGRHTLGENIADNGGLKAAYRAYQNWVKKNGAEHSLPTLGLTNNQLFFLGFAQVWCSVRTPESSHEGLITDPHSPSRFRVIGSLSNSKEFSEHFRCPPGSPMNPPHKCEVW
UniProt P55145: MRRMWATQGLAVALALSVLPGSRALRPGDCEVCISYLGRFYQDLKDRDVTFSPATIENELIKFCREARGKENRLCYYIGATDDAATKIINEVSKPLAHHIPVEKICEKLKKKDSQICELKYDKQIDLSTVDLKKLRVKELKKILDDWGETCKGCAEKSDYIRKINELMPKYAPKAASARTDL
UniProt Q9NZJ5: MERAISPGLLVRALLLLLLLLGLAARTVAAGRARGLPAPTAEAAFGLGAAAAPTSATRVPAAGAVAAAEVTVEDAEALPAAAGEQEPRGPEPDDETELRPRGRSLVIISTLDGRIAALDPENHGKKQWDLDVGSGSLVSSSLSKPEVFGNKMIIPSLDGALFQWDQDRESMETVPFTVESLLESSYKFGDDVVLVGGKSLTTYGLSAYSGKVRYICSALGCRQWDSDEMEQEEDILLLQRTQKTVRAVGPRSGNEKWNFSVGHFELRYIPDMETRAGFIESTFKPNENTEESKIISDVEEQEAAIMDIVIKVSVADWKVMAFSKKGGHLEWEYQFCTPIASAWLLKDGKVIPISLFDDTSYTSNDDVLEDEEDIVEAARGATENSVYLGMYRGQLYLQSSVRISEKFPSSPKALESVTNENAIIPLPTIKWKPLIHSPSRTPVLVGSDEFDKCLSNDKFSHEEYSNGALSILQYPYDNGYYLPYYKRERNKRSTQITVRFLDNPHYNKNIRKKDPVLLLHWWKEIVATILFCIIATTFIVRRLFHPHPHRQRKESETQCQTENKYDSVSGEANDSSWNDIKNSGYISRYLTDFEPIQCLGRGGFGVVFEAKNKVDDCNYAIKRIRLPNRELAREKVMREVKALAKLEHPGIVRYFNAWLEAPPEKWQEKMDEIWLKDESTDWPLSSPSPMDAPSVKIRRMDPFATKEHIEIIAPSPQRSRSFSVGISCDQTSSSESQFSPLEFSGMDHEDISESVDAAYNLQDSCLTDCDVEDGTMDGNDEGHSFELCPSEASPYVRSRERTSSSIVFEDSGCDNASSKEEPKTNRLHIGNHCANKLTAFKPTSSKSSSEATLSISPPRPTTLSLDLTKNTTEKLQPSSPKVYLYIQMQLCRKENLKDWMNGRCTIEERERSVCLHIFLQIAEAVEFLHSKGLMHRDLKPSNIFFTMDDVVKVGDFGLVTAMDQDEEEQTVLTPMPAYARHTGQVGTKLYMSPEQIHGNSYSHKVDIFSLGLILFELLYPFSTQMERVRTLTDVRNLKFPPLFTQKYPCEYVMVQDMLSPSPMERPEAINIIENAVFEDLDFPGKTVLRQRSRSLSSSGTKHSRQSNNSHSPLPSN
UniProt Q969M7: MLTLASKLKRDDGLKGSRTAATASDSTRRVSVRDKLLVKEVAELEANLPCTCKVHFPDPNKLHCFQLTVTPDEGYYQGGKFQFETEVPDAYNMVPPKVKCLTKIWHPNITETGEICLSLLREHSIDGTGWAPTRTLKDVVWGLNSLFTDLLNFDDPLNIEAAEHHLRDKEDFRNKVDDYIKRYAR
UniProt Q96AE4: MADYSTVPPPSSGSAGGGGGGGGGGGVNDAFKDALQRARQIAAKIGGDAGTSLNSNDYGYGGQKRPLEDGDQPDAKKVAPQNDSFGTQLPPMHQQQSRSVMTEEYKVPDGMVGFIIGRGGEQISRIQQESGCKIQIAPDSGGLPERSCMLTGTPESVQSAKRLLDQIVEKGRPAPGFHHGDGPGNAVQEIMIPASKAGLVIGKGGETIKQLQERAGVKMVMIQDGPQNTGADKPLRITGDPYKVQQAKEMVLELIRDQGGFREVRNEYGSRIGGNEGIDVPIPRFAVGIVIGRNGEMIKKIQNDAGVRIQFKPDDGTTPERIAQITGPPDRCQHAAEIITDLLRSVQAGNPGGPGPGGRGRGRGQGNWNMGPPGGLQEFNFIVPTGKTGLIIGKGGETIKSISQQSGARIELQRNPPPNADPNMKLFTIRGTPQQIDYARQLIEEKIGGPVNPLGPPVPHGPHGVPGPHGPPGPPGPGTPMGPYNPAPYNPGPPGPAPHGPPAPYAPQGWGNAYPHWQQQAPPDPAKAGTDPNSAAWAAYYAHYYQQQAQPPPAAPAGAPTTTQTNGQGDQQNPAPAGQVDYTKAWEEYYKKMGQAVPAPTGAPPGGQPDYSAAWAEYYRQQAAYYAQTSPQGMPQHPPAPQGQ
UniProt Q9H825: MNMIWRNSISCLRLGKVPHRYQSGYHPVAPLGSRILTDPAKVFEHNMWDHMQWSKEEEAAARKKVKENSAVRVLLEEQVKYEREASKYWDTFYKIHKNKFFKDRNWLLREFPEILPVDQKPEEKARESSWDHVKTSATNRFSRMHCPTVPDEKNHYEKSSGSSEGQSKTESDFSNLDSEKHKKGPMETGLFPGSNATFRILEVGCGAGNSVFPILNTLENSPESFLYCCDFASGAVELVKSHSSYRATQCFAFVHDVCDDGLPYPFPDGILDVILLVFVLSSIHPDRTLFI
UniProt P27144: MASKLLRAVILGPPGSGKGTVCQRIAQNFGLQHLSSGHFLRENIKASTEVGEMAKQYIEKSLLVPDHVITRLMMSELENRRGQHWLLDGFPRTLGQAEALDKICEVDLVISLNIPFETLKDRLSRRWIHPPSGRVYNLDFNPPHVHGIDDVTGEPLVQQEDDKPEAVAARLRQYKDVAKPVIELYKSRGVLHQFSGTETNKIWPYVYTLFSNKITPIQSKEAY
UniProt O60610, whole entry: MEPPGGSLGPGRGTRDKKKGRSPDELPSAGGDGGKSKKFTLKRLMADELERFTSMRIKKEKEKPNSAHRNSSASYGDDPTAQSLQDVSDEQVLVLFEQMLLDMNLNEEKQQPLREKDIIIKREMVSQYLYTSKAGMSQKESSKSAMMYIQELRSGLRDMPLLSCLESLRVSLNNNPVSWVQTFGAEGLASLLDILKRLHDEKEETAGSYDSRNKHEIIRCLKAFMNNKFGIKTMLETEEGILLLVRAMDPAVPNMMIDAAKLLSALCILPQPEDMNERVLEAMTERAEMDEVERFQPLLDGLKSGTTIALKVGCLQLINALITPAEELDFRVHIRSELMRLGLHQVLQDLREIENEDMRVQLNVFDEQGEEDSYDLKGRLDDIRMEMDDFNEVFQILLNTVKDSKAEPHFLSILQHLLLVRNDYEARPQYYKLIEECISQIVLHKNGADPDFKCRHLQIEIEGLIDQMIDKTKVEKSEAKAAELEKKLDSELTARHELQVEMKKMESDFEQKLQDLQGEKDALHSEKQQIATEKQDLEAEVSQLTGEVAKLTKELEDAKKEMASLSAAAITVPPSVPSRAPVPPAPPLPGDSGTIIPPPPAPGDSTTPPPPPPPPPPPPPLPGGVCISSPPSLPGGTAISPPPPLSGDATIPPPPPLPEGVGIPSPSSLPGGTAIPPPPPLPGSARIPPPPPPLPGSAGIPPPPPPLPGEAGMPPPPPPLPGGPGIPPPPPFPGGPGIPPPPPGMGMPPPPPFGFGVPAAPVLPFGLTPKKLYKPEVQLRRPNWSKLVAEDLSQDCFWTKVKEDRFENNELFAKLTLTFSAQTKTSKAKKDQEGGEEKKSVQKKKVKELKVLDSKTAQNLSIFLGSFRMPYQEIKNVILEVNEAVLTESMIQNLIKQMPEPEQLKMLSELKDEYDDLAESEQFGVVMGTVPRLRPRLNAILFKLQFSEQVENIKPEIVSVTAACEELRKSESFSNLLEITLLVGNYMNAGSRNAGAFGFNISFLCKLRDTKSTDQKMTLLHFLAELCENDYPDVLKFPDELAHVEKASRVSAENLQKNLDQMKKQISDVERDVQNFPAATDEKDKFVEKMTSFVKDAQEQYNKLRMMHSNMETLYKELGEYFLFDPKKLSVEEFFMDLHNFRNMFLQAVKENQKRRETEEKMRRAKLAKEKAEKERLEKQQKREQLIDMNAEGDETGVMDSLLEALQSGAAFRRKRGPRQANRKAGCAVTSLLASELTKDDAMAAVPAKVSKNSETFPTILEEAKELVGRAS
UniProt Q96GF1: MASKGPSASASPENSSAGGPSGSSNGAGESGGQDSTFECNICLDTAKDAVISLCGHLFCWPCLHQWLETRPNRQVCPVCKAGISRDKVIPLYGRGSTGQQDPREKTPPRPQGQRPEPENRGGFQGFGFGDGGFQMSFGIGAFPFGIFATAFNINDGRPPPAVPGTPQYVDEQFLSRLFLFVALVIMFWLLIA
UniProt Q6PIZ9: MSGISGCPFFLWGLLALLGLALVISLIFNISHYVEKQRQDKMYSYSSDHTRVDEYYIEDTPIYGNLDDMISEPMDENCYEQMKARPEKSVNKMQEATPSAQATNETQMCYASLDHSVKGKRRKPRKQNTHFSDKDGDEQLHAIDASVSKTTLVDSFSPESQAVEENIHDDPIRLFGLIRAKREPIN
UniProt Q12905: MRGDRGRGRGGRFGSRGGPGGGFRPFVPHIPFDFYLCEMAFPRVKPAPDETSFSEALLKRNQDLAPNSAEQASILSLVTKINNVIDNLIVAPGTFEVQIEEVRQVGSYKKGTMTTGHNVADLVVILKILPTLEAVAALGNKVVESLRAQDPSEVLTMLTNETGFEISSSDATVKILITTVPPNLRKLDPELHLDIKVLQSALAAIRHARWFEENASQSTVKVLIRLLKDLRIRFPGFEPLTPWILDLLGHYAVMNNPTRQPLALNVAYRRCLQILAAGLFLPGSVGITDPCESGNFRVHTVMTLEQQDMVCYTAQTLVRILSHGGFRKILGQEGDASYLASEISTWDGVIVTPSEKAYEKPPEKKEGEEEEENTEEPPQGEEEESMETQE
UniProt B7ZVY7, whole entry, looked up: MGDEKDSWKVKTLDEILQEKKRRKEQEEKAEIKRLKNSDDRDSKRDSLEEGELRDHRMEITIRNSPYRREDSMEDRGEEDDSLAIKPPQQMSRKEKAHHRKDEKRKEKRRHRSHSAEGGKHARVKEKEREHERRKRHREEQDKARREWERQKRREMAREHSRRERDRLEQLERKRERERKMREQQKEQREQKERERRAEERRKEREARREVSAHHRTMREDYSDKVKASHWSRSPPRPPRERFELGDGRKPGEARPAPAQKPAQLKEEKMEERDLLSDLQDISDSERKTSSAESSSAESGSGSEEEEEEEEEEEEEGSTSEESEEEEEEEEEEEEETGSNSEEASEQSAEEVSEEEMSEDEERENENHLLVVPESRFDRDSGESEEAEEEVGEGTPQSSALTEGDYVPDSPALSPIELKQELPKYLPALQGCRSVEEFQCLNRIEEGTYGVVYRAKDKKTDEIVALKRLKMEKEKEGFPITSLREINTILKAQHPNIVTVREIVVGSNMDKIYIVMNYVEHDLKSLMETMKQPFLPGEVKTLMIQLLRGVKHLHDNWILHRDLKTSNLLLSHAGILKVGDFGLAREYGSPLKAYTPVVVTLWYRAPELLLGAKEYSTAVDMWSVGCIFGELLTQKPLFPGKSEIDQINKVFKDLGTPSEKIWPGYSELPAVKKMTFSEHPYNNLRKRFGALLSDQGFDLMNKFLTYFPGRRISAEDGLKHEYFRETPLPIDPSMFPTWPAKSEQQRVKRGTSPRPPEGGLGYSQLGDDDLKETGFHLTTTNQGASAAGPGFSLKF
UniProt P11234: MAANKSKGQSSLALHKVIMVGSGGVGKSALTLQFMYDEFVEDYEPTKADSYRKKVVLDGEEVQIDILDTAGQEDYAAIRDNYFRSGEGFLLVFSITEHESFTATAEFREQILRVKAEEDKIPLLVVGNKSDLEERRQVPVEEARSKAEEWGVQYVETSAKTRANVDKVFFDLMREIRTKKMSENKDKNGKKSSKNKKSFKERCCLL

Compound in this assay: Nc1ncnc2c1ncn2[C@@H]1O[C@H](COP(=O)(O)OP(=O)(O)OP(=O)(O)O)[C@@H](O)[C@H]1O [adenosine triphosphate]
Nature of the assay: NP40-soluble protein abundance relative to vehicle (solubility fold change) (ratio); higher = more soluble protein in presence of ATP. Put shortly: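 Eight concentrations, 0.1 to 10 mM, were tested on Jurkat crude lysate for 10 min at room temperature and then 3 min at 37 °C, in three independent experiments. The lysate was solubilised with 0.8% NP40 and benzonase, ultracentrifuged, and the supernatant TMT-labelled for LC-MS/MS. Each value is the fold change against the detergent-processed vehicle in its own replicate, from vsn-normalised intensities.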

± gives the standard deviation of the averaged measurements. The list shows a part of the results, in another mix than the full data. Most entries show no effect beyond the scatter of the controls.

For the target “A0A0U1RQT7|A0A0U1RQY7|Q8IXA3 and related entries (UniProt Q9HCP0)”, the NP40-soluble protein abundance by setting is: (concentration: 0.1mM) 1.02 ± 0.075; (concentration: 0.5mM) 1.17 ± 0.14.

For “B4DKB2 and related entries (UniProt P42892)”, the NP40-soluble protein abundance runs as follows: (concentration: 0.1mM) 0.979 ± 0.048; (concentration: 0.5mM) 0.935 ± 0.046.

Turning to A0A0U1RQQ9|Q6P3W7 (UniProt Q6P3W7), the NP40-soluble protein abundance came to 1 ± 0.024 (concentration: 0.1mM) and 1.04 ± 0.06 (concentration: 0.5mM).

As for “A8K878 and related entries (UniProt P55145)”, the NP40-soluble protein abundance came to 0.862 ± 0.098 (concentration: 0.1mM) and 0.86 ± 0.13 (concentration: 0.5mM).

On to “B7Z3R9 and related entries (UniProt Q8TE99)”, for which the NP40-soluble protein abundance is 0.991 ± 0.012 (concentration: 0.1mM) and 1.02 ± 0.039 (concentration: 0.5mM).

Regarding “C9J185 and related entries (UniProt Q9NZJ5)”, the NP40-soluble protein abundance (concentration: 0.1mM) came to 1.06 ± 0.074 and the NP40-soluble protein abundance (concentration: 0.5mM) came out at 1.01 ± 0.1.

As for “C9J9P8 and related entries (UniProt Q969M7)”, the NP40-soluble protein abundance reads like this: (concentration: 0.1mM) 0.928 ± 0.079; (concentration: 0.5mM) 0.925 ± 0.11.

With “C9JSZ1 and related entries (UniProt Q96AE4)”, the NP40-soluble protein abundance reads like this: (concentration: 0.1mM) 0.943 ± 0.023; (concentration: 0.5mM) 0.935 ± 0.023.

For the target “A0A0R4J2F2|D6R9S8 and related entries (UniProt Q9NY35)”, the NP40-soluble protein abundance (concentration: 0.1mM) was found to be 0.944 ± 0.032 and the NP40-soluble protein abundance (concentration: 0.5mM) was determined as 0.979 ± 0.044.

Take “B3KW44 and related entries (UniProt Q9H825+E7ETE0+B5ME25+B3KW44)”: the NP40-soluble protein abundance (concentration: 0.1mM) is 0.971 ± 0.062 and the NP40-soluble protein abundance (concentration: 0.5mM) came to 0.989 ± 0.072.

With “D3DQ64 and related entries (UniProt P27144)”, the NP40-soluble protein abundance runs as follows: (concentration: 0.1mM) 0.937 ± 0.14; (concentration: 0.5mM) 0.975 ± 0.099.

Take A0A0G2JH68 (UniProt O60610): the NP40-soluble protein abundance (concentration: 0.1mM) is 0.976 ± 0.024 and the NP40-soluble protein abundance (concentration: 0.5mM) was found to be 0.994 ± 0.048.

For “D6RF48 and related entries (UniProt Q9P2W9)”, the NP40-soluble protein abundance was determined as 0.978 ± 0.053 (concentration: 0.1mM) and 0.938 ± 0.065 (concentration: 0.5mM).

In the case of “A6NJD9 and related entries (UniProt Q16540)”, the NP40-soluble protein abundance by setting is: (concentration: 0.1mM) 0.929 ± 0.17; (concentration: 0.5mM) 0.933 ± 0.12.

With A0A140T9L0|O15213 (UniProt O15213), the NP40-soluble protein abundance reads like this: (concentration: 0.1mM) 1.12 ± 0.073; (concentration: 0.5mM) 1.11 ± 0.16.

Consider A0A0G2JNW7|Q9Y666 (UniProt Q9Y666), for which the NP40-soluble protein abundance runs as follows: (concentration: 0.1mM) 0.982 ± 0.015; (concentration: 0.5mM) 0.982 ± 0.017.

In the case of “C9J2Y9 and related entries (UniProt P30876)”, the NP40-soluble protein abundance (concentration: 0.1mM) was 1.04 ± 0.045 and the NP40-soluble protein abundance (concentration: 0.5mM) worked out at 1.07 ± 0.027.

Regarding “A9X3U0 and related entries (UniProt Q96GF1)”, the NP40-soluble protein abundance by setting is: (concentration: 0.1mM) 1.03 ± 0.16; (concentration: 0.5mM) 0.93 ± 0.057.

With “A8MST6 and related entries (UniProt Q5JTW2)”, the NP40-soluble protein abundance (concentration: 0.1mM) worked out at 1.02 ± 0.15 and the NP40-soluble protein abundance (concentration: 0.5mM) came to 0.978 ± 0.087.

As to “C9JAX1 and related entries (UniProt Q16595)”, the NP40-soluble protein abundance is 0.901 ± 0.13 (concentration: 0.1mM) and 0.904 ± 0.18 (concentration: 0.5mM).

As for “A0A0J9YXJ0|E9PC62 and related entries (UniProt O95319)”, the NP40-soluble protein abundance by setting is: (concentration: 0.1mM) 0.989 ± 0.029; (concentration: 0.5mM) 0.989 ± 0.048.

Take “C9JF66 and related entries (UniProt Q6PIZ9)”: the NP40-soluble protein abundance reads like this: (concentration: 0.1mM) 0.97 ± 0.052; (concentration: 0.5mM) 0.956 ± 0.088.

Turning to “B4DY09 and related entries (UniProt Q12905)”, the NP40-soluble protein abundance came out at 0.993 ± 0.044 (concentration: 0.1mM) and 1.08 ± 0.024 (concentration: 0.5mM).

For the target “B7ZVY7 and related entries (UniProt P21127+B7ZVY7)”, the NP40-soluble protein abundance came to 0.985 ± 0.057 (concentration: 0.1mM) and 0.899 ± 0.075 (concentration: 0.5mM).

As for “C9J6B1 and related entries (UniProt P11234)”, the NP40-soluble protein abundance turned out to be 1.04 ± 0.081 (concentration: 0.1mM) and 1.05 ± 0.045 (concentration: 0.5mM).

For the target “C9J2Q2 and related entries (UniProt Q8N5M1)”, the NP40-soluble protein abundance runs as follows: (concentration: 0.1mM) 1.06 ± 0.056; (concentration: 0.5mM) 1.1 ± 0.16.

“B2R5W2 and related entries (UniProt P07910)”: the NP40-soluble protein abundance runs as follows: (concentration: 0.1mM) 0.884 ± 0.12; (concentration: 0.5mM) 1.01 ± 0.11.
